Source: PubChem BioAssay AID652243 (Drosophila RNAi Screening Center, 2013)
Screen: 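Fly regulators of androgen-dependent reporter output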 (primary screen). Cell system: Drosophila S2R+ cells. Reagent: long dsRNA against Drosophila genes. Duration: 72 h (48 h, then 24 h hormone). Challenge: synthetic androgen R1881 at 10 nM for 24 h. Read-out: 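Firefly light from an androgen-responsive reporter and Renilla control light per well, raw and unnormalised, for each of two replicates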. Direction: firefly reporter light: higher = more light from androgen-responsive reporter; Renilla control light: higher = more constitutive control signal (cell number, transfection). Rule for the call: 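Across duplicate plates, a knock-down whose log firefly/Renilla ratio shifted a set fold down or up from the GFP/LacZ control mean was a hit; the downward cut appears as both 1.5 and 3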. Meaning of the calls: active = hit: reporter lowered or raised; inactive = no hit.
In all, the deposit lists about 24,000 reagents; below is an unselected part of those with a known target gene and a result. Of all reagents, 246 (1%) are marked active. 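Plates not normalised; calls are printed but the firefly/Renilla ratio behind them is not deposited; fold cut for lowering reported inconsistently.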 Raw values vary from plate to plate and are shown uncorrected. A plus sign joins genes that one reagent is predicted to hit. Not given: the amount of reagent.

gene	amplicon	firefly reporter light, replicate 1	firefly reporter light, replicate 2	Renilla control light, replicate 1	Renilla control light, replicate 2	call
da	DRSC03517	1.54e5	85826	2.14e6	9.96e5	inactive
CG3323	DRSC18303	1.53e5	1.83e5	2.74e6	2.94e6	inactive
CG13220	DRSC06342	2.29e5	1.86e5	1.31e6	1.14e6	inactive
Ten-m (Tenascin major)	DRSC11664	1.24e5	1.48e5	1.50e6	1.73e6	inactive
Ten-m (Tenascin major)	DRSC11882	2216	1427			inactive
CG34133	DRSC16319	45437	30275	5.98e5	4.05e5	inactive
CG34133	DRSC22239	5.78e5	5.82e5	1.87e6	2.13e6	inactive
CG34133	DRSC25658	6.54e5	8.74e5	9.40e5	8.56e5	inactive
CG34133	DRSC29408	3.67e5	3.51e5	6.70e5	6.70e5	inactive
CG9300	DRSC11064	30648	24906	3.10e5	2.52e5	inactive
Rpt4R (Regulatory particle triple-A ATPase 4-related)	DRSC10791	1.77e5	2.58e5	2.41e6	2.52e6	inactive
Rpt4R (Regulatory particle triple-A ATPase 4-related)	DRSC25928	3.84e5	4.52e5	6.39e5	5.49e5	inactive
CG33981 + fab1	DRSC07412	3.82e5	3.56e5	5.97e5	5.19e5	inactive
CG33981 + fab1	DRSC28045	5.10e5	3.37e5	2.11e6	1.42e6	inactive
CG33981 + fab1	DRSC36797					inactive
CG33981 + fab1	DRSC36798					inactive
Aplip1 (APPL-interacting protein 1)	DRSC08697	87061	1.08e5	1.30e6	1.74e6	inactive
Aplip1 (APPL-interacting protein 1)	DRSC21587	4.85e5	6.14e5	1.29e6	1.94e6	inactive
Aplip1 (APPL-interacting protein 1)	DRSC26312	3.13e5	2.64e5	6.53e5	5.68e5	inactive
CG33234	DRSC37784	9.88e5	7.36e5	2.14e6	1.33e6	inactive
P32	DRSC06988	8.44e5	7.93e5	6.00e5	6.43e5	inactive
Cnep1r2 (CTD nuclear envelope phosphatase 1 regulatory subunit 2)	DRSC10950	8.62e5	5.70e5	2.13e6	2.08e6	inactive
RpS14b (Ribosomal protein S14b)	DRSC18711	88915	98228	1.19e6	1.08e6	inactive
otk2 (off-track2)	DRSC07303	2.83e5	2.72e5	1.66e6	1.57e6	inactive
CG43795	DRSC04192	3.55e5	4.36e5	2.28e6	1.48e6	inactive
CG43795	DRSC04193	3.05e5	3.23e5	1.97e6	2.16e6	inactive
CG43795	DRSC04194	3.71e5	3.73e5	3.04e6	2.29e6	inactive
CG43795	DRSC04309	4.31e5	3.18e5	2.52e6	1.59e6	inactive
CG43795	DRSC04310	1.99e5	2.30e5	1.67e6	1.70e6	inactive
CG43795	DRSC04497	1.72e5	2.97e5	1.45e6	1.35e6	inactive
CG43795	DRSC22826	3.61e5	6.04e5	7.55e5	1.31e6	inactive
CG43795	DRSC25149	8.63e5	8.59e5	7.88e5	9.36e5	inactive
CG43795	DRSC26752	4.93e5	3.80e5	1.10e6	8.91e5	inactive
thoc5	DRSC04327	6.95e5	7.33e5	1.26e6	1.40e6	inactive
CG17019	DRSC06642	9.13e5	9.37e5	9.23e5	1.36e6	inactive
CG14111	DRSC10114	1.78e5	2.10e5	1.31e6	1.74e6	inactive
CG14111	DRSC27551	4.69e5	4.11e5	6.28e5	4.65e5	inactive
Cyp18a1 (Cytochrome P450 18a1)	DRSC20235	2.45e5	1.63e5	1.18e6	5.61e5	inactive
Cyp18a1 (Cytochrome P450 18a1)	DRSC27063	4.56e5	3.87e5	7.71e5	7.03e5	inactive
Gapdh1 (Glyceraldehyde 3 phosphate dehydrogenase 1)	DRSC07433	2.04e5	1.95e5	1.23e6	1.16e6	inactive
Gapdh1 (Glyceraldehyde 3 phosphate dehydrogenase 1)	DRSC25746	5.72e5	5.81e5	7.38e5	6.04e5	inactive

Looked up above.
Result for da [DRSC03517] under “Renilla control light, replicate 2”: 9.96e5
For “call”, Aplip1 (APPL-interacting protein 1) [DRSC08697] is entered as inactive
CG43795 [DRSC25149], firefly reporter light, replicate 2 = 8.59e5
CG33234 [DRSC37784], firefly reporter light, replicate 2: 7.36e5
CG43795 [DRSC04309], call → inactive
Under “Renilla control light, replicate 1”, Rpt4R (Regulatory particle triple-A ATPase 4-related) [DRSC10791] reads 2.41e6
